Experimental data reported in PubChem BioAssay AID504467 (National Center for Advancing Translational Sciences (NCATS), 2011).
The whole screen tested about 330,000 compounds, of which about 7,700 (2.3%) were called active. The inconclusive results got no clear call from the source; some entries with a clear call stand among them for comparison. The call rests on the fitted dose curve; in most records, active means well fitted inhibition curve with a large enough effect; inconclusive means small, poorly fitted or top-dose-only effect, or effect the other way; inactive means flat fitted curve, though single readings scatter. Potencies beside an inconclusive call are fits to weak or partial responses and may not hold up.

Assay: qHTS screen for small molecules that inhibit ELG1-dependent DNA repair in human embryonic kidney (HEK293T) cells expressing luciferase-tagged ELG1; further: nearly all actives have a fitted effect of over 55% in size
Settings: HEK293T ELG1-luciferase reporter, luminescence, 16 h, DNA damage induced by 5-fluorouridine; activity change, negative = inhibition: at 46.1 µM (top of the series)
In short: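 Luminescence from the luciferase reporter, measured 30 min after ONE-Glo reagent at room temperature, was the read-out. Beforehand, 2,000 cells per well were exposed for 16 hr at 37 °C to 5-fluorouridine together with compound or vehicle.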
On the % scale 0 is the no-effect control and ±100 the full control effect; potency means the concentration at half of the fitted maximal effect.

Compound	activity change, negative = inhibition	Potency
COc1cc(C(=O)NCC(=O)Nc2ccc(F)c(F)c2)ccc1OCC(=O)N1CCOCC1	inactive: 4.02%	
CCc1ccc(CN(C)C(=O)c2cc(COc3ccc(OC)cc3Cl)on2)nc1		inconclusive: 14.6 µM [activator, partial curve]
COC(=O)C(CCSC)NC(=O)Cn1ncc2c(=O)oc3ccccc3c21 (stereo not drawn)		inconclusive: 16.4 µM [activator, partial curve, poor fit]
O=C(CCC1CCCN(C(=O)c2ccc3c(c2)OCCO3)C1)NCc1ccccc1F (stereo not drawn)		inconclusive: 29.1 µM [activator, single point]
CCOC(=O)Cc1csc(NC(=O)CSc2nccn2C)n1	inactive: -14.5%	
Cn1c(CSCc2ccc(Cl)c(Cl)c2)nnc1SCC(=O)Nc1nccs1		inconclusive: 16.4 µM [inhibitor, partial curve]
COc1cc(/C=C2\SC(=S)N(CCC(=O)N3CCN(C)CC3)C2=O)cc(OC)c1OC	inactive: 1.1%	
CN(C(=O)CCN1C(=O)/C(=C/c2ccccc2F)SC1=S)C1CCS(=O)(=O)C1 (stereo not drawn)		inconclusive: 18.3 µM [inhibitor, partial curve, poor fit]
Cc1ccc(O)c(-c2cc(-c3cccc(Br)c3)n[nH]2)c1		inconclusive: 18.3 µM [activator, partial curve]
COC(=O)c1cc(OC)c(OC)cc1NC(=O)C(C)Sc1ccc(C)cc1 (stereo not drawn)		inconclusive: 29.1 µM [inhibitor, single point]
Cc1ccc(C)c(S(=O)(=O)N2CCCCC2CCNC(=O)C(=O)NCCc2ccco2)c1 (stereo not drawn)		inconclusive: 29.1 µM [inhibitor, single point]
CCOc1cc(C(=O)N2CCC3(CC2)NCCc2[nH]cnc23)cc(OCC)c1OCC	inactive: -6.92%	
C/C(=N\NC(=O)c1cc(C)nc2ccccc12)c1ccccn1		inconclusive: 6.51 µM [activator, single point]
COc1ccc(NC(=O)Nc2ccccc2SC)cc1		inconclusive: 16.4 µM [activator, partial curve]
CSc1nnc(NC(=O)c2cccc(S(=O)(=O)N3CCOCC3)c2)s1	inactive: -6.24%	
Cc1noc(NS(=O)(=O)c2ccc(N/C=C\C(=O)c3cccc4ccccc34)cc2)c1C		inconclusive: 29.1 µM [activator, single point]
COc1cc(NC(=S)NC(=O)c2ccccc2F)ccc1NC(=O)c1cccs1	inactive: 11.4%	
C[C@H](CO)N1C[C@H](C)[C@@H](CN(C)C(=O)NC2CCCCC2)Oc2c(NS(=O)(=O)c3cccs3)cccc2C1=O		inconclusive: 32.6 µM [activator, partial curve, poor fit]
CCc1ccc(C(C)NC(=O)c2ccncc2)cc1 (stereo not drawn)	inactive: -13.1%	
N/C(CS(=O)(=O)c1ccccn1)=N\OC(=O)c1ccccc1Cl		inconclusive: 9.2 µM [activator, partial curve]
CCc1cc(C=NC2CCCCC2)c(O)s1		inconclusive: 18.4 µM [activator, partial curve]
Cc1sc(NC(=O)CN(C(=O)c2ccccc2F)C2CCCC2)c(C(N)=O)c1C		active: 16.4 µM
Cc1ccc(C)c(OCC(=O)O/N=C(\N)c2ccccn2)c1		inconclusive: 16.4 µM [activator, partial curve]

Compound	activity change, negative = inhibition	Potency
Cc1cc2nn(-c3cccc4ccccc34)nc2cc1N		inconclusive: 16.4 µM [activator, partial curve]
CCCN(CCC)CCNC(=O)C1CCN(S(=O)(=O)c2cccc3nsnc23)CC1		inconclusive: 16.4 µM [activator, partial curve, poor fit]
COc1ccc(N2C(=O)CC(SCC(=O)O)C2=O)cc1 (stereo not drawn)	inactive: -0.948%	
Cc1cc(OC(C)C(=O)NCc2ccccn2)c2c(C)c(C)c(=O)oc2c1 (stereo not drawn)		inconclusive: 16.4 µM [activator, single point]
COc1ccccc1NC(=S)NC(=O)C(C)(C)C		inconclusive: 25.9 µM [activator, partial curve, poor fit]
Cc1cccc(NC(=O)c2sc3nc(N4CCOCC4)c4c(c3c2N)CCCC4)c1		inconclusive: 16.4 µM [activator, partial curve]
Cc1cc(SCC(=O)N(C)c2c(N)n(Cc3ccccc3)c(=O)[nH]c2=O)nc2ccccc12		inconclusive: 25.9 µM [inhibitor, partial curve, poor fit]
CCC(OC(=O)C1=Cc2ccccc2OC1)C(=O)NC1CCCC1 (stereo not drawn)		inconclusive: 10.3 µM [inhibitor, partial curve]
CC(C)=CC(=O)Nc1nnc(-c2ccccc2)s1		inconclusive: 4.11 µM [activator, partial curve]
COc1ccc(C(CNC(=O)c2ccc(-c3cccc(C(F)(F)F)c3)o2)N2CCOCC2)cc1 (stereo not drawn)		inconclusive: 23.1 µM [inhibitor, single point]
Cc1c(NC(=O)c2cc(-c3cccs3)nc3ccccc23)c(=O)n(-c2ccccc2)n1C		active: 2.91 µM
Clc1ccc(-c2cn(-c3ccc(Cl)cc3)c3[n+]2CCCCC3)cc1		inconclusive: 11.6 µM [inhibitor, partial curve]
CC1=C(C(=O)Nc2cc(C(=O)N3CCN(c4cccc(C)c4C)CC3)ccc2C)SCCO1		active: 18.3 µM
O=C(CNC(=O)c1ccc(Cl)cc1Cl)NCC1CCCO1 (stereo not drawn)		inconclusive: 16.4 µM [activator, single point]
Cc1cccc(NC(=S)NCCN(C2CCCCC2)C2CCCC2)c1		inconclusive: 5.8 µM [inhibitor, partial curve, poor fit]
Cn1c(=O)[nH]c(=O)c2c1nc(NCCCn1ccnc1)n2Cc1cccc(Br)c1		inconclusive: 16.4 µM [activator, single point]
COc1ccc(CNn2c(-c3ccccc3F)nc3ccccc3c2=O)cc1OC	inactive: -11.7%	
CC(C)c1ccccc1OCCNC(=O)c1cncc(Br)c1		inconclusive: 20.6 µM [inhibitor, single point]
COc1ccccc1-c1cn[nH]c1-c1ccc(OCC(=O)NN)cc1O	inactive: 18.6%	
O=C(COc1ccc(Cl)cc1Br)Nc1ccccc1N1CCCC1	inconclusive: 24.8% [activator]	
O=C(NCCN1CCN(c2ccc([N+](=O)[O-])cc2)CC1)NCc1ccccc1		inconclusive: 1.46 µM [inhibitor, full curve, poor fit]
CCCNC(=O)C(Cc1cccc(Cl)c1)NC(=O)c1ccccc1 (stereo not drawn)	inactive: 20.2%	
CCc1noc(C)c1C(=O)Nc1nc2ccc(F)cc2s1		inconclusive: 18.3 µM [activator, partial curve]

Compound	activity change, negative = inhibition	Potency
CC1Cc2ccccc2N1C(=O)CSc1nnnn1C (stereo not drawn)	inactive: -1.35%	
O=C(NCc1csc(-c2cccs2)n1)Nc1cccc(Cl)c1		inconclusive: 29.1 µM [inhibitor, partial curve, poor fit]
Cc1nn(C)cc1C(C(=O)NC1CCCCC1)N(C(=O)Cn1nnc2ccccc21)c1ccc(F)cc1 (stereo not drawn)	inactive: 14.5%	
Cc1ccc2nc(/N=C(\N)NC(=O)N3c4ccccc4Sc4ccccc43)nc(C)c2c1	inactive: -6.51%	
N[C@@H](Cc1ccccc1)c1nnc(SCc2ccccc2F)o1		inconclusive: 29.1 µM [activator, single point]
S=c1[nH]nc(-c2ccc3ccccc3n2)n1-c1ccccc1		inconclusive: 29.1 µM [activator, partial curve, poor fit]
COc1cc(NC(=O)CSCC(=O)Nc2cc(OC)cc(OC)c2)cc(OC)c1		inconclusive: 29.1 µM [inhibitor, single point]
Cc1cc2oc(C(=O)NCc3ccncc3)c(C)c2cc1C		inconclusive: 29.1 µM [inhibitor, single point]
Cc1cccc(NC(=O)CSCC(=O)Nc2ccc(S(=O)(=O)N3CCCCC3)cc2)c1		inconclusive: 23.1 µM [inhibitor, single point]
CC(C)N(CCNC(=O)c1ccc(CS(=O)(=O)c2c(Cl)cccc2Cl)o1)Cc1ccccc1	inactive: 11.6%	
CCCn1c(N)c(C(=O)NS(=O)(=O)c2ccc(C)cc2)c(=O)n(C)c1=O		active: 10.3 µM
O=C1/C(=C\c2cc([N+](=O)[O-])ccc2O)SC(=S)N1Cc1ccc(Cl)cc1		active: 18.3 µM
Fc1ccccc1Cn1nnc(-c2ccc3c(c2)OCO3)n1		inconclusive: 9.2 µM [activator, partial curve]
Cn1c(NC(=O)c2ccccc2)nc2ccccc21		inconclusive: 2.31 µM [activator, full curve]
S=C(NCCCCNC(=S)NCc1ccccc1)NCc1ccccc1	inactive: -0.877%	
Cc1ccc(S(=O)(=O)N2CCN(C(=O)COC(=O)CSc3ccc(C)c(C)c3)CC2)c(C)c1	inactive: 15%	
Cc1ccc(S(=O)(=O)N/N=C/c2cccn2-c2ccc(Cl)cc2)cc1		inconclusive: 3.16 µM [activator, full curve, poor fit]
Cc1ccccc1NS(=O)(=O)c1ccc(C(=O)N2CCCCCC2)cc1	inactive: -21.4%	
Cc1ccc(S(=O)(=O)/N=C(/Nc2ccc([N+](=O)[O-])cc2)c2ccccc2)cc1		inconclusive: 32.6 µM [inhibitor, partial curve, poor fit]
Cc1ccc(C)c(N2CCN(C(=O)CCS(=O)(=O)c3cccc4nonc34)CC2)c1		inconclusive: 22.4 µM [inhibitor, single point]
COCCCn1c(SCc2nc3ccccc3c(=O)[nH]2)nc2ccccc2c1=O		inconclusive: 1.84 µM [inhibitor, partial curve, poor fit]
Cc1cccc(C(=O)OCC(=O)c2csc(N3CCCCC3)n2)c1[N+](=O)[O-]	inactive: 5.3%	

For reference, three of the compounds above:
Compound	activity change, negative = inhibition	Potency
N[C@@H](Cc1ccccc1)c1nnc(SCc2ccccc2F)o1		inconclusive: 29.1 µM [activator, single point]
S=c1[nH]nc(-c2ccc3ccccc3n2)n1-c1ccccc1		inconclusive: 29.1 µM [activator, partial curve, poor fit]
COc1cc(NC(=O)CSCC(=O)Nc2cc(OC)cc(OC)c2)cc(OC)c1		inconclusive: 29.1 µM [inhibitor, single point]
